# Data as given in PubChem BioAssay AID1259424 (University of Nebraska Medical Center, 2018)
# Test: 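Rank knockdowns across the genome by resemblance to the KSR1 depletion profile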 (primary screen)
# Cells: human HCT116 colon cancer cells
# Knock-down reagent: siRNA pool against human genes, 50 nM
# Read-out: 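Six signature mRNAs by branched-DNA multiplex assay, scaled to two housekeeping genes and non-targeting median, log2; matched to mean KSR1 knockdown profile by Pearson correlation and euclidean distance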
# Direction: mean correlation with KSR1 profile and KSR1 correlation: higher = expression change more like KSR1 knockdown; mean distance from KSR1 profile: higher = expression change less like KSR1 knockdown
# In all, the deposit lists about 14,000 reagents; shown is a part drawn at random. 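Higher correlation or smaller distance means closer resemblance to KSR1 loss; control wells, including KSR1 knockdowns, recur on many plates.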 The record does not give: the time to read-out.
gene,mean correlation with KSR1 profile,mean distance from KSR1 profile,"KSR1 correlation, replicate 1","KSR1 correlation, replicate 2","KSR1 correlation, replicate 3"
FCGR2C (Fc gamma receptor IIc (gene/pseudogene)),0.367,4.62,-0.69,-0.863,0.5
MBNL3 (muscleblind like splicing regulator 3),0.0945,1.75,0.181,0.0664,-0.0994
RPAP1 (RNA polymerase II associated protein 1),-0.479,3.97,-0.395,-0.638,-0.478
RHBDF1 (rhomboid 5 homolog 1),0.163,1.68,0.162,-0.0573,0.3
ADNP (activity dependent neuroprotector homeobox),-0.584,1.37,-0.317,-0.378,-0.541
CDK2AP1 (cyclin dependent kinase 2 associated protein 1),-0.286,2.44,-0.11,-0.233,-0.53
OTOR (otoraplin),-0.343,3.04,-0.31,-0.461,-0.263
LRRC4 (leucine rich repeat containing 4),-0.368,4.07,-0.395,-0.266,-0.306
ASB3 (ankyrin repeat and SOCS box containing 3),-0.526,2.83,-0.452,-0.211,-0.381
NCKAP1L (NCK associated protein 1 like),-0.367,1.9,-0.53,-0.459,-0.33
GNPAT (glyceronephosphate O-acyltransferase),-0.133,1.94,-0.087,-0.245,-0.18
NRM (nurim),-0.251,2.55,-0.0456,-0.29,-0.365
"ALKBH7 (alkB homolog 7, RNA demethylase)",0.691,1.51,0.48,0.68,0.686
ANK2 (ankyrin 2),-0.113,1.86,0.00165,-0.224,-0.137
RECK (reversion inducing cysteine rich protein with kazal motifs),-0.476,3.4,-0.458,-0.46,-0.533
PDK3 (pyruvate dehydrogenase kinase 3),0.566,1.21,0.747,-0.0558,0.552
NCF4 (neutrophil cytosolic factor 4),0.0336,2.4,0.167,0.124,-0.00534
SLITRK3 (SLIT and NTRK like family member 3),-0.712,2.39,-0.563,-0.712,-0.677
SLC22A6,0.533,2.37,0.434,0.664,0.582
"ZFPM2 (zinc finger protein, FOG family member 2)",0.07,2.51,0.0905,-0.22,0.199
PARP1 (poly(ADP-ribose) polymerase 1),-0.548,1.91,-0.559,-0.51,-0.753
GNMT (glycine N-methyltransferase),-0.0322,1.62,0.0273,-0.328,-0.229
APOBEC1 (apolipoprotein B mRNA editing enzyme catalytic subunit 1),0.188,2.28,0.108,0.0345,0.335
POU5F1 (POU class 5 homeobox 1),-0.402,2.15,-0.423,-0.385,-0.411
BRDT (bromodomain testis associated),-0.0284,2.46,-0.0736,-0.082,-0.285
ADAM7 (ADAM metallopeptidase domain 7),-0.612,1.33,-0.254,-0.54,-0.722
CAND1 (cullin associated and neddylation dissociated 1),-0.411,1.46,-0.684,-0.551,-0.111
TIMM8A (translocase of inner mitochondrial membrane 8A),-0.261,1.52,-0.171,-0.175,-0.145
MB (myoglobin),-0.609,1.86,-0.685,-0.651,-0.705
ELF5 (E74 like ETS transcription factor 5),0.56,2.08,0.514,0.523,0.566
PDLIM5 (PDZ and LIM domain 5),-0.318,2.57,-0.175,-0.0959,-0.458
FOXRED2 (FAD dependent oxidoreductase domain containing 2),-0.339,3.33,-0.33,-0.385,-0.8
LEPR (leptin receptor),0.193,1.48,-0.0553,0.359,0.151
HOXA3 (homeobox A3),0.284,1.74,0.236,0.241,0.263
